These are yes or no findings as the source states them, for the method shown. Some results given as binding are weak or reduced against the parent protein; the word gives no strength.
What was measured:
[1] = target: murine GARP-proTGFβ1 complex (mouse; human) (UniProt G3XA59); test: ELISA, purified hIgG4 titrated from about 0.002 to 100 nM, readout RLU, panel mGARP-TGFb1
[2] = target: human LTBP1-proTGFβ1 complex (human) (UniProt Q14766); test: ELISA, purified hIgG4 titrated from about 0.002 to 100 nM, readout RLU, panel hLTBP1-TGFb1
[3] = target: human LTBP3-proTGFβ1 complex (human) (UniProt Q9NS15); test: ELISA, purified hIgG4 titrated from about 0.002 to 100 nM, readout RLU, panel hLTBP3-TGFb1
[4] = target: murine LTBP1-proTGFβ1 complex (mouse; human) (UniProt Q8CG19); test: ELISA, purified hIgG4 titrated from about 0.002 to 100 nM, readout RLU, panel mLTBP1-TGFb1
[5] = target: murine LTBP3-proTGFβ1 complex (mouse; human) (UniProt Q61810); test: ELISA, purified hIgG4 titrated from about 0.002 to 100 nM, readout RLU, panel mLTBP3-TGFb1

Protein sequences, listed by entry. Tags and fused reporters are not part of them. Lines headed by an entry give the natural chain unless they say otherwise; changes in a name come on top.
UniProt G3XA59: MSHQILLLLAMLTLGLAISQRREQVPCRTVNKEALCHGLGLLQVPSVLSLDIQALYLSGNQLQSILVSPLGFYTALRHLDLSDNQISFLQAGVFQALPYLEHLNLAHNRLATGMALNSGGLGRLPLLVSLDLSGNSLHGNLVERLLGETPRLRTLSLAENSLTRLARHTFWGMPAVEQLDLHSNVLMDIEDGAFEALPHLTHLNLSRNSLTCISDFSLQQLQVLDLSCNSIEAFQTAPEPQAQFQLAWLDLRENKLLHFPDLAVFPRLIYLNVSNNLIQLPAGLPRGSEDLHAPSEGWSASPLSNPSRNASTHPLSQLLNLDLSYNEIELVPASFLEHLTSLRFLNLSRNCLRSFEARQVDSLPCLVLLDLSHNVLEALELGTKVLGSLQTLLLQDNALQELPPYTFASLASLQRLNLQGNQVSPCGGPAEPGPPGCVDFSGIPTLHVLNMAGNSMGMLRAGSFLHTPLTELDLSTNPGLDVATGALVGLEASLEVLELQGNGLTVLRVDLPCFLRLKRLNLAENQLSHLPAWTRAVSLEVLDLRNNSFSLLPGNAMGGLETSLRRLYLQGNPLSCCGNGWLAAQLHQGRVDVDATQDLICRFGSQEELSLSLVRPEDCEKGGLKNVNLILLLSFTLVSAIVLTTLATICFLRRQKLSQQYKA
UniProt Q14766: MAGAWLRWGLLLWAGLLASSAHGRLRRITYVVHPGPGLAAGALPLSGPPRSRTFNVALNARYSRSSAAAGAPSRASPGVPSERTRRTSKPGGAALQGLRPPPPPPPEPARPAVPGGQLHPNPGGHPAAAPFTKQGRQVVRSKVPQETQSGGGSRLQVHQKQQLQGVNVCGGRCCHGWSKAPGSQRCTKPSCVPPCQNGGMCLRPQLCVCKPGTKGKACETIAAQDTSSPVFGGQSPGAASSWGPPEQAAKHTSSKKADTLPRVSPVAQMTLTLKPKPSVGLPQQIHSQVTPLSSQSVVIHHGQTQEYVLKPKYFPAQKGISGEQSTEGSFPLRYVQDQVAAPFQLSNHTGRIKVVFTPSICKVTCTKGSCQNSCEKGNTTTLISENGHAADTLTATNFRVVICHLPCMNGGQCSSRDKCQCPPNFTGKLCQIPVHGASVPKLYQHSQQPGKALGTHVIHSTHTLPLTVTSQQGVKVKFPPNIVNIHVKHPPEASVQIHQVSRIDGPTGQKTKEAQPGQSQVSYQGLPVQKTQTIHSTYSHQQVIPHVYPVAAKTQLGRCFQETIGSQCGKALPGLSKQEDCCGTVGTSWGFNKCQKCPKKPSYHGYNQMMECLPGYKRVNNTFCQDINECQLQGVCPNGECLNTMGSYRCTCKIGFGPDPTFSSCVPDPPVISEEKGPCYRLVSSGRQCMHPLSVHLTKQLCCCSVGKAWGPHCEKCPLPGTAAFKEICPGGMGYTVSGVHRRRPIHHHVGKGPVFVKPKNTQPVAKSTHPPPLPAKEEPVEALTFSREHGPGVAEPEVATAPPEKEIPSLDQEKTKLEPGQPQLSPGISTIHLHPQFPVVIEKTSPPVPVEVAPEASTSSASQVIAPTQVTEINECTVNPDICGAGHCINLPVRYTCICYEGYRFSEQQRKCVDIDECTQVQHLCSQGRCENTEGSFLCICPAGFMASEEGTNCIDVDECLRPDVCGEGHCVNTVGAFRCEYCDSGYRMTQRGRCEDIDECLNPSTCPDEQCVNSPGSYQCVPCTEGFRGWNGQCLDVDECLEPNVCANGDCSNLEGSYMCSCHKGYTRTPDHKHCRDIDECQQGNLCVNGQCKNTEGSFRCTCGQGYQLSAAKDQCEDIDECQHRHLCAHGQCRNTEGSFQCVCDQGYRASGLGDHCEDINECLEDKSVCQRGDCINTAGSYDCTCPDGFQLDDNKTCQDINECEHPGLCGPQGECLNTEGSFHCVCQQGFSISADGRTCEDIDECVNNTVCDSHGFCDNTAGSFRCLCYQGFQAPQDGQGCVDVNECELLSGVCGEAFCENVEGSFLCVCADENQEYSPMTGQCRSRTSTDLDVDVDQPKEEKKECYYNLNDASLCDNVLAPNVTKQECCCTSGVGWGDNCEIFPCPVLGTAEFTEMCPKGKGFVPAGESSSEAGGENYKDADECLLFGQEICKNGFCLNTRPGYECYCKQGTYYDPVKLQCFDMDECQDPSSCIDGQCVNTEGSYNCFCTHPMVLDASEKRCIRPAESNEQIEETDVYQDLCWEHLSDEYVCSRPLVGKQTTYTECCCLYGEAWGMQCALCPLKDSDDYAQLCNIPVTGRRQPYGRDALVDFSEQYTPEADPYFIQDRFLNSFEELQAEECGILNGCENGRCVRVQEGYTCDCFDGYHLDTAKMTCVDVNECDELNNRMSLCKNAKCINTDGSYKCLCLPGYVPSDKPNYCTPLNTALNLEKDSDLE
UniProt Q9NS15: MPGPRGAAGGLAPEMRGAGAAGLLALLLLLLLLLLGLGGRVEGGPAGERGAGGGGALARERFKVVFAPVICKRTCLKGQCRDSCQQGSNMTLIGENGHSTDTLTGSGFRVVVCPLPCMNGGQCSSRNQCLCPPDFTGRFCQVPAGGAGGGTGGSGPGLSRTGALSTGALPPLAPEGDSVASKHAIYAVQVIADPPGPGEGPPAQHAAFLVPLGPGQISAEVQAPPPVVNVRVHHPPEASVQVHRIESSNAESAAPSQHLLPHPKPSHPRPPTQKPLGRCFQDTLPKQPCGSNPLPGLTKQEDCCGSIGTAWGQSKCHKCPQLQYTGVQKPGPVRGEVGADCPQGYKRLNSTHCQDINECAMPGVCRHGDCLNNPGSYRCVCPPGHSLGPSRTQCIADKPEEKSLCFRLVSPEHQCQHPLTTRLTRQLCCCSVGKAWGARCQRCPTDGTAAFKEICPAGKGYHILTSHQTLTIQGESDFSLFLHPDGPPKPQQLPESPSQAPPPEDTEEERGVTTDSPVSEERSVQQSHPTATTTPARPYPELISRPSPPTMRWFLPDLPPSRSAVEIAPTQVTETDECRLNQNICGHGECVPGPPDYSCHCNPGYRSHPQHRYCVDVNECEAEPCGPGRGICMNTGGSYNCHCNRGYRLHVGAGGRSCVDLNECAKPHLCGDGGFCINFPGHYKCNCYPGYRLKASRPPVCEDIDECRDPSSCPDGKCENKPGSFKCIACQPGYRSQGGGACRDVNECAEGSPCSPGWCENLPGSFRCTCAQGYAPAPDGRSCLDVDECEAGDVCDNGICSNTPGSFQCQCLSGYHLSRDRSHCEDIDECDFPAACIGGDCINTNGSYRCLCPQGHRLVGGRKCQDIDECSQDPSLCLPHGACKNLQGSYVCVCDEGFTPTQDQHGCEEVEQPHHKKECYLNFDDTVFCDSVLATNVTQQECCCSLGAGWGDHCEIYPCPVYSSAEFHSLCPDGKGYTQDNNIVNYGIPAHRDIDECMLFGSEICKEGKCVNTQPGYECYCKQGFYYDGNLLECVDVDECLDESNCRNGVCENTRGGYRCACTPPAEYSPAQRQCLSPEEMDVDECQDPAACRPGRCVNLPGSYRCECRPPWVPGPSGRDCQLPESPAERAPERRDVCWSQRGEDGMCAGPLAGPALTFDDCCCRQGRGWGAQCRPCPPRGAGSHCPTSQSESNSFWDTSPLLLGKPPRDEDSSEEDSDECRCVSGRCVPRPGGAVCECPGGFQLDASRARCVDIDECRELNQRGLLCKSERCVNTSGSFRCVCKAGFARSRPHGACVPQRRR
UniProt Q8CG19: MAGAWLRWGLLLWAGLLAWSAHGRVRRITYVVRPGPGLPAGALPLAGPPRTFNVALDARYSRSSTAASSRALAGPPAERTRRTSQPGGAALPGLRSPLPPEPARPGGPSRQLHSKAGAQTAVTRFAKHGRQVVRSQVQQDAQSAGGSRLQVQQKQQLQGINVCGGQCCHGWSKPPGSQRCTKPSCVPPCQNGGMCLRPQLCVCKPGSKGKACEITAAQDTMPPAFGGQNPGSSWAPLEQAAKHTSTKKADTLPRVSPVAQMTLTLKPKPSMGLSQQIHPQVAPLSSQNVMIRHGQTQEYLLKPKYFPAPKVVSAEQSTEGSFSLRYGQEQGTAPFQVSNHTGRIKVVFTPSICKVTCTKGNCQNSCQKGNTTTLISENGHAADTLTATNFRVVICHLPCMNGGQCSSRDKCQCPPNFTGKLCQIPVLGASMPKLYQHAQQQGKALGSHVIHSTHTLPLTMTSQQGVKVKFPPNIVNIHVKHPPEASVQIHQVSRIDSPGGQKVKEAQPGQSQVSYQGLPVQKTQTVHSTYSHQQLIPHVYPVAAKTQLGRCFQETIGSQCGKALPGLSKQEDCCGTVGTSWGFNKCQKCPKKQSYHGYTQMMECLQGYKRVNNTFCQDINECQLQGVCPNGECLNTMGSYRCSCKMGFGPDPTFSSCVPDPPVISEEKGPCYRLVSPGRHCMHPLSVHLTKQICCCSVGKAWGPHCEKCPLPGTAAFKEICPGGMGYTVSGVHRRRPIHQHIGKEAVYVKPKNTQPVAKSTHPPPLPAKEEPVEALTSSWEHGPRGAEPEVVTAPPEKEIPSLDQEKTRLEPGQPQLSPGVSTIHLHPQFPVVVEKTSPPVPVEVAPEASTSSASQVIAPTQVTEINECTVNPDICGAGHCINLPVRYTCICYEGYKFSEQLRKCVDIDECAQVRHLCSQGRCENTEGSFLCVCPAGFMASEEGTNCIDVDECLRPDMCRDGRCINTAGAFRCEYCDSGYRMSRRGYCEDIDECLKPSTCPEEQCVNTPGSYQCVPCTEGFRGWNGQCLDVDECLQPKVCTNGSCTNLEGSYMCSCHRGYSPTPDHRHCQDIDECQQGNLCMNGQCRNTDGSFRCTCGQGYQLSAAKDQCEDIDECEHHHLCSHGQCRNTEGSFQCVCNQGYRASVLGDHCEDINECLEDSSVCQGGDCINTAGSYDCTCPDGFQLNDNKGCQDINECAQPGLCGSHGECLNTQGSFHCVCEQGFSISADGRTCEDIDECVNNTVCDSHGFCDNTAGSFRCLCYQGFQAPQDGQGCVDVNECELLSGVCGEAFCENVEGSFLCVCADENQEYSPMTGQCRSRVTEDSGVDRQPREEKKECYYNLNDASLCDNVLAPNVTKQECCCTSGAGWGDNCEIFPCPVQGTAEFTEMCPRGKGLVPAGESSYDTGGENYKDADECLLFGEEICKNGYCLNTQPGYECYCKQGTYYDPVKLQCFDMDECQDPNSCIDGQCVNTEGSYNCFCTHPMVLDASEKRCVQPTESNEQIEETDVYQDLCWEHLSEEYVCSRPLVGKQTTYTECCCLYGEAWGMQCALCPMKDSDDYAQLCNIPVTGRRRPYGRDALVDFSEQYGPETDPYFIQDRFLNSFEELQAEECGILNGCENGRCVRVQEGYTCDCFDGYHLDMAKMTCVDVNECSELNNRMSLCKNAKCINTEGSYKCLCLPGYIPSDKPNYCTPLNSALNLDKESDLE

Measured: binding

B1: Ab46 hIgG4 (antibody, V domains shown)
VH: EVQLLESGGGLVQPGGSLRLSCAASGFTFADYAMTWVRQAPGKGLEWVSAISGSGAATYFADSVKGRFTISRDNSKNTLYLQMNSLRAEDTAVYYCARVSSGHWDYDYWGQGTLVTVSS
VL: DIQLTQSPSSLSASVGDRVTITCRASQSISSYLNWYQQKPGKAPKLLIYAASGLESGVPSRFSGSGSGTDFTLTISSLQPEDFATYYCQQTYGVPLTFGGGTKVEIK
binds: all assays above
